Chains of the proteins cited; added tags and fusions are not shown.
UniProt Q63943: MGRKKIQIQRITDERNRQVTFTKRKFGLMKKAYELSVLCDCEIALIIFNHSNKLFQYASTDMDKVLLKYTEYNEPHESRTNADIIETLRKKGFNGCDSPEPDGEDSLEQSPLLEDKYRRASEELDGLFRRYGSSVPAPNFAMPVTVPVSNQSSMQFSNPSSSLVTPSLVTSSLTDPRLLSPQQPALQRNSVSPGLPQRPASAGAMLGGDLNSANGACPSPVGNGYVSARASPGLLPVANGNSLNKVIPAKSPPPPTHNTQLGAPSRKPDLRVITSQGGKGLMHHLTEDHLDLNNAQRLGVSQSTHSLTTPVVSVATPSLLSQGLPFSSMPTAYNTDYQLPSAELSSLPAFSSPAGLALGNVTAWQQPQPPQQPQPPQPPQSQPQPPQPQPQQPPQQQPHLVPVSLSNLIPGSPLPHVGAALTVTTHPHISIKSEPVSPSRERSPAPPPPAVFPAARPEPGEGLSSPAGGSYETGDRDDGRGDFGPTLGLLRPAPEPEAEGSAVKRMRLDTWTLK
UniProt Q64518: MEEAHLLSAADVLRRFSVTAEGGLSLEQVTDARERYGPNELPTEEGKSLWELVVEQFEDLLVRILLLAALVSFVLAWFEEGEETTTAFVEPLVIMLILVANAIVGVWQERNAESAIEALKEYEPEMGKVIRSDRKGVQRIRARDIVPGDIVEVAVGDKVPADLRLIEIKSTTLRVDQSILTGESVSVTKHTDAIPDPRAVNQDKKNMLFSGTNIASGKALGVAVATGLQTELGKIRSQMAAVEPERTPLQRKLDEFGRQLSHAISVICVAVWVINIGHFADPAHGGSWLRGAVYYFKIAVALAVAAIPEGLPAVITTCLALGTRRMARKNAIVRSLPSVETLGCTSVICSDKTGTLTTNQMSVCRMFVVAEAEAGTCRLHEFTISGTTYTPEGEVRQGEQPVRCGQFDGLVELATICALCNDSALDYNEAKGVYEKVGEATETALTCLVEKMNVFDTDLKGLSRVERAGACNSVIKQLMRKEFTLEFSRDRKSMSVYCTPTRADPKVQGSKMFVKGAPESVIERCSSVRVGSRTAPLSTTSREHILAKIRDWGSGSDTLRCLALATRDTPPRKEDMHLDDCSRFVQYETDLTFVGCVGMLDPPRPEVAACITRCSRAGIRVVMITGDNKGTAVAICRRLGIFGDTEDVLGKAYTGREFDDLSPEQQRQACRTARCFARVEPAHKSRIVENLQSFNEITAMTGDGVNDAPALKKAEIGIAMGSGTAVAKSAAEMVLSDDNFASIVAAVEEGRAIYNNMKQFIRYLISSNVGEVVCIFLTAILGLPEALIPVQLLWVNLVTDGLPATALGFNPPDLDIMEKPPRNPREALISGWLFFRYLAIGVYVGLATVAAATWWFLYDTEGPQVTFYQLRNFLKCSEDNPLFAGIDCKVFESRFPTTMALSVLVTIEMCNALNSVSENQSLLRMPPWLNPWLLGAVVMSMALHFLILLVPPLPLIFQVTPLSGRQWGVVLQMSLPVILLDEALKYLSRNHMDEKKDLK

In publication PMC9258116:

Biological target: myocyte enhancer factor 2D (Mef2d) (mouse (endogenous in RAW264.7)) (UniProt Q63943)
Test: affinity purification with mass spectrometry; co-IP from RAW264.7 protein extract (high-glucose culture), pre-cleared with Protein A/G Plus Agarose; 2 ug rabbit anti-mouse Mef2d antibody to 500 ug extract overnight at 4 C, agarose 2 h at 4 C; SDS-PAGE, in-gel digestion, nano-UPLC Q Exactive HFX, MaxQuant

binding: binds
Substance: ATPase sarcoplasmic/endoplasmic reticulum Ca2+ transporting 3 (Atp2a3) (from UniProt Q64518 1-999)

Results are given in words; binding and its absence hold for the method and conditions named. In cells and extracts the contact can be indirect. These calls come from enrichment with a bait or labelling near it, and not all partners need be listed.
